Data on 107 sequences can be found in PubChem BioAssay AID1508600 (Functional Genomics Laboratory (NCATS/FGL), 2020).

The campaign covered roughly 53,000 sequences. About 3,700 (7%) were called active.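 The calls were made as follows: active = gene knockdowns whose robust z-score for IL-1 alpha signal is at least 2 or at most -2, so actives lie on both sides; inactive = the rest.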 Some of the results follow.

The assay can be described thus: Components of the Cytosolic LPS Sensing Pathway: Gene Identification via Genome-wide siRNA Screen.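 Also: robust z of the log signal after scaling to non-targeting control siRNA wells of the plate.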 As to conditions: RAW264.7 macrophages, IL-1a HTRF, actives lie on both sides, screened at 100 nM (by protocol), cells primed 5 h with Pam3CSK4 first. The method, boiled down:
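Using IL-1a HTRF as read-out, the screen measured release from RAW264.7 cells after 48h siRNA knockdown (100 nM), 5 h Pam3CSK4 priming and 24 h cytosolic LipidA. Values were expressed relative to negative-control wells as robust z-scores.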
Consider GGAACUGCUCGUAGGAAGATT against Btf3, for which the z-score was inactive: -0.337. The result for GGAGCUGAGCAGUGAUGAATT against Snx29 reads active: -2.08. The result for GCCAUGAAUAUUGUGCGAATT against Hikeshi reads inactive: 0.465.

As for GGCCUACAAUACCUCCAUUTT against Grid2ip, the z-score was inactive: 1.12.

With CCGAGAUUGCCUGUUUGGUTT against Rnf144b, the z-score was active: 2.08.

With GGACUCCUAUCCAUCUAUGTT against Panx3, the z-score is inactive: -0.571. As for CCCUAAGGUGGCAGAAAUCTT against Atp1a2, the z-score was inactive: -1.49. To GGUUUGAGAGUGGUAAUCUTT against Agbl3 belongs active: 2.17.

Consider GGCCAUAUUAAGUAUGGAGTT against Fam118a, for which the z-score was inactive: -0.34. The result for GGCCUUUCAAUGUUACAGATT against Mpo reads inactive: -0.186. The result for GCUGAAAGGAAUGUGCUCATT against Hspa8 reads inactive: -1.57. Turning to GGUGGUGAUAAUUGUUUUUTT against Olfr1497, the z-score is inactive: -1.02.

Turning to GGCAGCUCUGACUUUAUAATT against Klhdc3, the z-score is inactive: -1.63. For the sequence GGCUCUGGCUAAGUACUUGTT against Cenpb, the z-score was inactive: -0.943. In the case of GGGACAGUUGACUUUUUAUTT against Cntn4, the z-score is inactive: 0.147.

For the sequence GCGGUAUGAUCUAGUAGUGTT against Zfp672, the z-score was inactive: 0.0856. To “GGCAAAUUAAAGACAAAUCTT against 9530009G21Rik” belongs inactive: 1.81; to UUGAAAUGCCUCGUUCUUUTT against Wfdc13, inactive: 0.395. To GGACCAGGUUUGUUUUUUATT against Stom belongs inactive: 1.03; to GGUUUGAAGUGUUGACAUUTT against Fam126a, inactive: -0.474. The result for GGAAUAAAGGAACUGAAUCTT against Plek reads inactive: -0.235; that for GCUCAACUUCUGAAUUAUATT against Enpep, active: 2.64.

For the sequence GGACUUUUCUCUCCACCACTT against Slc22a26, the z-score is inactive: -1.43. As to GGCUUUUCUGCCAUUUAUGTT against Sox18, the z-score is inactive: 0.23.

As to GGUGAAAAUCAAGCUGAAUTT against Smarca2, the z-score was inactive: 1.36. To CCUUCAUAUCCCAGUAAAATT against Tmem230 belongs inactive: -1.48; to UCGGGAAAUGAAAUGUUGCTT against Crh, inactive: -0.887; to “AGUCUCACCAGCAACGCACTT against 4930451E10Rik”, inactive: -0.305. Regarding GGGAAGUUUGGUUCUUUGGTT against Msn, the z-score was inactive: 0.749. As to GCAAAAGGAAACGAUCUCATT against Fbxo43, the z-score is inactive: -0.302. To GGGUUAGAUUUAGUCAAUGTT against Haspin belongs inactive: 0.969; to GGCCAGAUGCAGUCUGUGUTT against Slx1b, inactive: 0.118. To CCUACGAAGAAGAAGAGAUTT against Zbtb7b belongs inactive: 0.342. On to GCAGCAGUUUUGUAGACAUTT against Fbxo25, for which the z-score is inactive: 0.0918. Turning to GGAAGAACUUCUGUUCAUGTT against Krt18, the z-score was inactive: 0.634. The result for GCUGGUGUGUAACAUCAAUTT against Fut8 reads inactive: 0.246; that for GGACAGUCGAAUUUCAGUCTT against Olfr417, inactive: 1.48.

As to CCCUUCUCCACCUGAGAGUTT against Orm3, the z-score is active: -2.25. As for CCACUGAAGUUUUCAUUCUTT against Olfr1055, the z-score is inactive: 0.355. The result for GGUUGAAUCAGAAAAAUUCTT against Gbp3 reads inactive: -1.08.

In the case of GGUAUAGAGAGUUCGUGUGTT against Snx10, the z-score is inactive: -1.06. For CGGCCUCUUCUGGUUGUUGTT against Retreg2, the z-score was inactive: -0.786. The result for GGAGAAAGCCAAGAAGAAUTT against Cfap206 reads inactive: -0.0723; that for GCAUAUAACCGAGUUGAUUTT against Cdcp1, inactive: 0.183; that for GGACAGACACAAGAUGAGATT against Khdc4, inactive: 0.315.

In the case of GGCUCAAGCAUUAAUUAAUTT against Myo5c, the z-score is inactive: 0.0919.

Take GGGAUCGCUGUAUAGAAAUTT against Chdh: the z-score is inactive: 0.43.

Consider GCGAGAUUCUUAAAGAAAUTT against Brdt, for which the z-score was inactive: 0.645. Consider “GGCUUUGUAGCGAUAACAATT against D930030D11Rik”, for which the z-score was inactive: -0.936. To GGCUGAAGAUGGAAACAUCTT against Gtpbp2 belongs inactive: -1.91. To GGAGUAUGAUUCAGAAAUGTT against Scn11a belongs inactive: -0.607. To GCAGAUCUGCGUCAAUGCUTT against Scube1 belongs inactive: -0.528; to GGGAAGUUUCUUGAAGCACTT against Rfxank, inactive: 0.103. Consider GAGCUAAGCAAGAUGCUAGTT against Sox17, for which the z-score was active: 3.97. GCCGCUUAGAGGCUCAUCUTT against Nfe2l2: the z-score was inactive: -1.86.

Regarding CCAAAUUUUACUGCACGUGTT against Nol11, the z-score is inactive: 0.305. The result for GCGAGAAAUUACCACCUUCTT against Klhl8 reads inactive: -0.516. In the case of GCGGAGAAUAACAUAUCUCTT against Fut8, the z-score is inactive: -0.521. The result for “UCCCAACUCCUAAAGAUCGTT against F730035P03Rik” reads inactive: -0.102. The result for GGACAUCCGUCCCUAUAUCTT against Zfp366 reads inactive: 0.00789; that for CCAUGAGGAUGAUUACCUATT against Cnga2, inactive: -0.947. GGAAAAUCAUGGGAGCCUUTT against Lpo: the z-score is inactive: -0.435. The result for CGCACUGGAUAAUAUCAGCTT against Dok5 reads inactive: 0.0135; that for GCACGGCCCUACUUUAUAGTT against Trim33, inactive: -1.43; that for GGAAAAAGGCUUUUGGGACTT against Olfr135, inactive: 0.653. As to CGAAAGUUACUCAUAGAGATT against Itga6, the z-score was inactive: -0.143. Consider GGCGAGAACAGUUUGAGUUTT against Ttll13, for which the z-score is inactive: 0.96. Take CGGUUGUCUUCCUCUUAGUTT against Fzd5: the z-score is inactive: -0.52.

For the sequence CCUUUAUACCCAAUACCUATT against Atxn2, the z-score is inactive: 0.234. In the case of GGUUGAUAAAGGAGCCAUCTT against Mcts1, the z-score is inactive: 1.02.

GGCUCCUGUGCAUAUCUAATT against Olfr116: the z-score was inactive: -0.449.

Turning to GGAUAUGAACAAUAGCAUATT against Kcna1, the z-score is active: 2.2.

On to GGUGACCCACUACUGUAAGTT against Trim46, for which the z-score was inactive: 0.373. Consider GGUUACGUUGUACGAAAUCTT against Nt5c1b, for which the z-score was inactive: 1.49. In the case of GGUACGAUCACUCCAAAACTT against Clk1, the z-score is inactive: 0.537. As to GGAACUACCUUGAAGAGGATT against Tmem59, the z-score was inactive: -0.844. The result for GGAAGUAAGGAAAUCAAAATT against Gspt2 reads inactive: 0.66; that for GGAAACAGAGAAGAUCAUUTT against Kif1a, inactive: -0.397; that for GGAAUGAAUAAAGCUACUUTT against Fah, inactive: -0.799. Turning to GGUAGCAUAGGCUAGCAUATT against Crcp, the z-score was inactive: 0.0494. As for CCGACAGCACUUGUCUUGATT against Fbxo4, the z-score was inactive: -0.244.

For the sequence GGUGUUCUUCACUGACUACTT against Lrp1, the z-score is inactive: 0.574. The result for GCAGUUAUUCAAAUUUGCCTT against Keg1 reads inactive: -0.551. To CUAUGACACUUGGUUCCAUTT against Nxpe5 belongs inactive: 1.69.

As to GGCAAAAUGGUUUUUUGUUTT against Hepacam2, the z-score was inactive: -0.239.

Regarding CCUUUUCAAGCUAACAACATT against Gba2, the z-score was inactive: -0.0808. To GGAUUCCUCUAACACAUUUTT against Keg1 belongs active: 2.07; to GGAAAUGACUCUCUAUGGCTT against Cyp4f13, inactive: -1.15.

For CCAAUAAAAUUGGUGUUCCTT against H13, the z-score is inactive: 0.18. To GCAUAGUCAAGGUCAGAUCTT against Gpr107 belongs inactive: -0.00643; to GGAAGUCGACCUUAUAGUUTT against Hhipl2, inactive: 0.5; to GCAGUAUAUCCUACAUUGGTT against Olfr510, inactive: 1.3.

Consider GGCAGUGGUUAAAGGUUCCTT against Lrp6, for which the z-score was active: 2.27. The result for GCAAAAGUUAACGAUUUCCTT against Wdr41 reads inactive: 1.67; that for CCUUAGCCACUUUUUGGCCTT against Dhrsx, inactive: 0.867. On to CCAAUUGUGAAGAUGUUUGTT against Eif3e, for which the z-score is inactive: -1.21. With GCAUAUUGGCUCAUCCUUUTT against Anapc2, the z-score was inactive: -0.383. With GCGAAUUCGUGAGAAGAGCTT against Ripk4, the z-score is inactive: -0.884. The result for GGAAUCGAGAAUUACUACGTT against Tspan15 reads inactive: -0.353. Take GGGUGUGAAGGAGUUCAAGTT against Zfp710: the z-score is inactive: 1.34. Regarding GGUGACCUUACCUAAUGUATT against Mettl18, the z-score was inactive: 0.578.

With GGACUACUGAAUUCUUUUATT against Nectin2, the z-score is inactive: -1.06.

In the case of UGAAGAAUAAGGAACUCAUTT against AA467197, the z-score is inactive: 1.69. The result for GGGAAGACCAUUUUUAAAUTT against Zfp78 reads inactive: 1.91. To GGUGCUUUGCUCUUUCUUGTT against Mrfap1 belongs inactive: 0.311. For the sequence GCUCUCGUAGACUGCUAUATT against Ppp1r14c, the z-score is active: 2.13. On to GGACACAGACACCAAACAATT against Kat2a, for which the z-score is inactive: -1.71.
